## Primary screen of a compound library

Values are the deposited “Percent Effect”, in %.
The record does not define 0% and 100%; most values in the screen are far below 50% and negative numbers occur (in some assays of this library far below -100).
The compounds are a random part of those screened.
Two or more numbers in one place are separate tests of the same structure; such repeats can differ widely.
A dash means the value is not listed here; it may have been measured.

T. brucei: 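Whole-parasite assay of Trypanosoma brucei over 72 hours; the read-out is not stated. Tested at 30 µM. Direction is inferred from retests: higher values go with stronger inhibition. Values scatter widely below zero; nearly all retest evidence comes from the higher of the two concentrations used. About 64,000 compounds were tested under these conditions; 1.5% (about 940) showed 50% or more at least once.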
Leishmania in macrophages: 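Cell assay of Leishmania donovani living inside macrophages; the read-out is not stated. Concentration: 30 µM. Higher reads as stronger inhibition (inferred: compounds with an IC50 in retests scored well above the rest). About 69,000 compounds were tested under these conditions; 1.5% (about 1,000) showed 50% or more at least once.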

| # | SMILES | T. brucei | Leishmania in macrophages |
|---|---|---|---|
| 1 | `Cn1ncnc1NS(=O)(=O)c1ccc(F)cc1` | -6.662 | 8.331 |
| 2 | `CNC(=O)c1cnc2n1CCN(Cc1cccnc1)C2.O=C(O)C(F)(F)F.O=C(O)C(F)(F)F.O=C(O)C(F)(F)F` | -30.25 | 6.23 |
| 3 | `COCCn1cnnc1Cn1ccnc1-c1ccsc1` | -28.17 | 19.81 |
| 4 | `Cl.NC(=O)C1CN(c2ccc(F)cc2)CCN1` (configuration not stated) | -4.641 | 11.89 |
| 5 | `CCOC(=O)CCC(=O)N1CCC(CSCc2ccco2)CC1` | -21.35 | 23.46 |
| 6 | `CCCN1CCCn2nc(CNC(=O)C3CCOC3)cc2C1` (configuration not stated) | -7.22 | 2.424 |
| 7 | `CCOc1ccnc(N2CCN(C(=O)c3ccncc3)CC2)n1` | -5.737 | -11.04 |
| 8 | `CN(C)c1nccc(N(C)C2CCCCC2)n1` | 1.825 | 27.27 |
| 9 | `Cc1cc(C(C)NC(=O)c2ccc(O)nc2)c(C)o1` (configuration not stated) | -33.01 | 26.09 |
| 10 | `O=C(CCc1cscn1)N1CCCC1c1noc(C2CC2)n1` (configuration not stated) | -26.7 | 24.43 |
| 11 | `CC(C)N1CCCC(C(=O)N2CCc3c(nc(CC4CC4)[nH]c3=O)C2)C1` (configuration not stated) | -34.3 | -95.56 |
| 12 | `CC(C)n1ccc2c(NC(=O)c3n[nH]c4c3CCC4)cccc21` | 13.87 | 46.36 |
| 13 | `Cn1cc(-c2nc(CN3CCOC(Cn4cccn4)C3)cs2)cn1` (configuration not stated) | -52.43 | 31.17 |
| 14 | `COc1ccc(CNC(=O)CCn2cc(C)cn2)cc1C` | -32.45 | -14.6 |
| 15 | `[H][C@@]12CS(=O)(=O)C[C@]1([H])N(C(=O)c1cc(C(C)C)on1)CCN2C(=O)C(C)C` | 19.51 | 0.3998 |
| 16 | `Cc1nc(C)n(CC2CCCN2Cc2nc3ccccc3n2C)n1` (configuration not stated) | 0.6377 | 10.35 |
| 17 | `COc1cc2nc(C)n(CC(=O)O)c(=O)c2cc1OC` | 30.03 | 5.194 |
| 18 | `O=C(c1cc(-c2cn[nH]c2)nc2cc(F)ccc12)N1CCS(=O)(=O)CC1` | -7.774 | 4.667 |
| 19 | `CCc1nc(C2CCCN2C(=O)c2ccc3c(c2)[nH]c(=O)n3C)no1` (configuration not stated) | -0.07713 | -12.01 |
| 20 | `CC(NCc1ccnc(OC2CCC2)c1)c1cnn(C)c1` (configuration not stated) | -16.63 | -11.76 |
| 21 | `CCCN1CCCn2c(nc(CNC(=O)N3CCCC3)cc2=O)C1.O=C(O)C(F)(F)F` | - | 20.75 |
| 22 | `Fc1cccc(-c2nc(CN3CCOC(Cn4cccn4)C3)co2)c1` (configuration not stated) | -19.71 | 2.939 |
| 23 | `Cc1cc(C)nc(N2CCc3ccc(OC(F)F)cc3C2)n1` | 70.84 | 84.87 |
| 24 | `CC(C)C(C(=O)N1CCC(Nc2cccnn2)CC1)n1cncn1` (configuration not stated) | -29.86 | -1.486 |
| 25 | `Cc1nc(C2CCCN2CC(=O)Nc2c(C)n[nH]c2C)no1` (configuration not stated) | -41.14 | -46.8 |
| 26 | `CCn1cc(NC(=O)NCC(C)(C)N2CCc3ccccc3C2)cn1` | - | 3.916 |
| 27 | `CN(CC(F)(F)F)C(=O)COc1nc(Cc2ccc(F)cc2)no1` | 8.506 | 25.91 |
| 28 | `O=C(NCc1cn2c(n1)CN(Cc1cccnc1)CC2)C1CCC1.O=C(O)C(F)(F)F.O=C(O)C(F)(F)F` | -13.06 | -11.93 |
| 29 | `CCc1cn[nH]c1C1CCCN(C(=O)c2cnc(NC(C)C)nc2)C1` (configuration not stated) | -16.93 | -140 |
| 30 | `C1CN(c2nc(C3CC3)ns2)CCO1` | -50.42 | 35.69 |
| 31 | `COc1c(C2CCCN2C(=O)c2ccnn2C)c(C)nn1C` (configuration not stated) | -23.8 | 21.01 |
| 32 | `O=C(O)C(F)(F)F.[H][C@@]12CCN(c3ccc(C)nn3)C[C@]1([H])O[C@@H](C(=O)NCc1ccco1)C2` | -8.623 | -2.596 |
| 33 | `Cc1ccccc1CN1CCN(C(=O)CN2CCOC2=O)CC1` | -21.48 | -2.119 |
| 34 | `Cn1cc(C2=CCN(CCCC(=O)Nc3ccc(C#N)cc3)CC2)cn1` | -121.5 | -5.359 |
| 35 | `CCOc1cc(C(=O)N2CC=C(c3ccc(O)cc3)CC2)ccn1` | -19.62 | 26.04 |
| 36 | `CCSc1ccccc1C(=O)NCC1CCN(Cc2ccsc2)CC1` | 9.164 | 26.93 |
| 37 | `Cc1cnc2c(c1NCc1ccc3c(c1)OCO3)c(=O)n(C)c(=O)n2C` | -27.04 | -24.44 and -36.31 |
| 38 | `COc1ccc(-c2csc3c2c(N)nc(=O)n3CC(N)=O)cc1` | -41.13 | 28.95 |
| 39 | `COc1cc(C)c(C2CC(=O)NCc3nc4sccn4c32)cc1C` (configuration not stated) | - | 9.579 |
| 40 | `Cn1c(SCC(=O)NC(C)(C#N)C2CC2)nc2ccccc21` (configuration not stated) | -12.52 | 25.95 |
| 41 | `Cc1ccc(NC(=O)c2ncc(C(N)=O)cc2Cl)cc1F` | -12.24 | -38.29 |
| 42 | `CCCN1CCCC2(CCN(S(=O)(=O)c3cccnc3)C2)C1=O` (configuration not stated) | -17.91 | 20.46 |
| 43 | `O=C(NCCn1ccnc1)NCc1ccc(N2CCCCCC2)nc1` | 4.473 | -11.9 |
| 44 | `[H][C@]12CN(C(C)C)CCN1C(=O)N(C1CCCCC1)C2` | 16.23 | 23.23 |
| 45 | `CCN1CCc2[nH]nc(C(=O)N3CCCC3C)c2C1.O=C(O)C(F)(F)F` (configuration not stated) | -10.82 | 0.5054 |
| 46 | `Cc1cccc2c(CCNC(=O)[C@H](N)c3ccccc3)c[nH]c12` | 14.02 | 12.83 |
| 47 | `Cc1ccccc1CSc1ncccc1C(=O)N(C)C` | 7.541 | 10.08 |
| 48 | `N#Cc1cccc(N2CCCC(CO)(CCOc3ccccc3)C2)n1` (configuration not stated) | -42.71 | 0.6994 |
| 49 | `CN(C)C(C(=O)NCC1(N(C)C)CCOCC1)c1ccccc1F` (configuration not stated) | -50.32 | 8.049 |
| 50 | `COc1ccc(F)c(-c2ccnc(N)c2)c1` | -32.84 | 16.22 |

For reference, 3 entries once more:

Cc1cnc2c(c1NCc1ccc3c(c1)OCO3)c(=O)n(C)c(=O)n2C read T. brucei: -27.04%; Leishmania in macrophages: -24.44% and -36.31%.
COc1c(C2CCCN2C(=O)c2ccnn2C)c(C)nn1C (configuration not stated) read T. brucei: -23.8%; Leishmania in macrophages: 21.01%.
C1CN(c2nc(C3CC3)ns2)CCO1 read T. brucei: -50.42%; Leishmania in macrophages: 35.69%.

Source: ChEMBL document CHEMBL3988442, “University of Dundee, Small-Polar-MMV Screening Library” (2021).